{"source": "patent US20100331311A1", "about": "(priority 2005, published 2010)", "key": {"Alzheimer's patients": {"system": "Alzheimer's patients", "conditions": "human, in vivo; cited from earlier work"}, "RGC axons": {"system": "RGC axons", "assay": "Quantification of surviving RGC axons in optic nerve after ocular hypertension surgery", "design": "species or system Brown Norway rats", "conditions": "rat, in vivo"}, "[1]": {"system": "glaucomatous and normal (contralateral) eyes", "design": "species or system Brown Norway rats", "conditions": "rat, in vivo", "description": "IOP from glaucomatous and normal (contralateral) eyes was measured in awake animals using a calibrated tonometer (TonoPen XL, Medtronic Solan, Jacksonville, Fla.). Ten to fifteen consecutive readings per eye were taken and averaged to obtain an accurate daily IOP measurement. IOP was measured daily for two weeks after ocular hypertension surgery, and then every other day for the entire duration of the experiment. The mean IOP (mm Hg±S.E.M.) per eye was the average of all IOP readings since the onset of pressure elevation. The maximum IOP measured in each individual eye, glaucomatous or normal contralateral eye, was defined as the peak IOP and this value was used to estimate the mean peak IOP for each group. The delta positive integral IOP was calculated as the area under the IOP curve in the glaucomatous eye minus that of the fellow normal eye from ocular hypertension surgery to euthanasia. Integral IOP represents the total, cumulative IOP exposure throughout the entire experiment.\nFor this purpose, Applicant measured intraocular pressure every other day for entire duration of daily treatment with galantamine up to 35 days after ocular hypertension (OHT) surgery."}, "[2]": {"system": "retinal ganglion cells (RGCs)", "design": "species or system Brown Norway rats", "conditions": "rat, in vivo"}, "[3]": {"system": "retinal ganglion cells (RGCs)", "design": "species or system Sprague-Dawley rats", "conditions": "rat, in vivo"}}, "note": "“Also recorded” adds a separate entry of the source. At least one compound was matched to its structure with a doubt left."}
{"smiles": "COc1ccc2c3c1O[C@H]1C[C@@H](O)C=C[C@@]31CCN(C)C2", "note": "[Galantamine, galantamine]", "values": [{"measurement": "basic and instrumental activities of daily living (in words)", "setting": "Alzheimer's patients", "result": "maintenance or improvement of basic and instrumental activities of daily living"}, {"measurement": "protection of RGC axons in the optic nerve (in words)", "setting": "RGC axons", "result": "protected a significant number of axons"}, {"measurement": "effect on intraocular pressure (in words)", "setting": "[1]", "result": "did not reduce intraocular pressure; also recorded: did not change the mean IOP increase"}, {"measurement": "neuroprotection of RGCs at different systemic doses vs saline (in words)", "setting": "[2]", "result": "significantly more neuroprotective than saline treatment; also recorded: effective at promoting survival of retinal ganglion cell in glaucoma at all doses tested"}, {"measurement": "neuroprotection of RGCs in experimental glaucoma, galantamine vs donepezil (in words)", "setting": "[2]", "result": "protected a higher number of retinal ganglion cells in experimental glaucoma than donepezil or saline"}, {"measurement": "neuroprotective effect on RGCs, higher intraocular pressure group (in words)", "setting": "[2]", "result": "marked neuroprotective effect"}, {"measurement": "protection of RGCs from ocular hypertension damage (in words)", "setting": "[2]", "result": "striking protection of RGCs from ocular hypertension damage"}, {"measurement": "neuroprotection of RGCs after axotomy, galantamine vs donepezil (in words)", "setting": "[3]", "result": "protected a higher number of retinal ganglion cells in the axotomy model than donepezil or saline"}]}
